## Results of single-concentration screens

Protein sequences, listed by entry. Tags and fused reporters are not part of them. Residues count along the entry.
UniProt P9WPC5, whole entry: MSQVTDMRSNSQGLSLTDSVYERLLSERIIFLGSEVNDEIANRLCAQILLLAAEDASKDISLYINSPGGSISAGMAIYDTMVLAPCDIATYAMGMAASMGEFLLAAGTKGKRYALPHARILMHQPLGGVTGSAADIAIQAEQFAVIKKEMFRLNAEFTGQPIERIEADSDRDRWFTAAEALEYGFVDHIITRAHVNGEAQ
UniProt P9WPC3, whole entry partner: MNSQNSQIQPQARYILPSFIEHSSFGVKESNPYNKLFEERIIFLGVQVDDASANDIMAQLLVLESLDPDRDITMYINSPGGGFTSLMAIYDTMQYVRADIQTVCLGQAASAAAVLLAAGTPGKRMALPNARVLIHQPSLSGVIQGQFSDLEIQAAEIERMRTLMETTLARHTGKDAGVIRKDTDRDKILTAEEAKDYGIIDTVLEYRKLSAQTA
UniProt I6X8D2, whole entry: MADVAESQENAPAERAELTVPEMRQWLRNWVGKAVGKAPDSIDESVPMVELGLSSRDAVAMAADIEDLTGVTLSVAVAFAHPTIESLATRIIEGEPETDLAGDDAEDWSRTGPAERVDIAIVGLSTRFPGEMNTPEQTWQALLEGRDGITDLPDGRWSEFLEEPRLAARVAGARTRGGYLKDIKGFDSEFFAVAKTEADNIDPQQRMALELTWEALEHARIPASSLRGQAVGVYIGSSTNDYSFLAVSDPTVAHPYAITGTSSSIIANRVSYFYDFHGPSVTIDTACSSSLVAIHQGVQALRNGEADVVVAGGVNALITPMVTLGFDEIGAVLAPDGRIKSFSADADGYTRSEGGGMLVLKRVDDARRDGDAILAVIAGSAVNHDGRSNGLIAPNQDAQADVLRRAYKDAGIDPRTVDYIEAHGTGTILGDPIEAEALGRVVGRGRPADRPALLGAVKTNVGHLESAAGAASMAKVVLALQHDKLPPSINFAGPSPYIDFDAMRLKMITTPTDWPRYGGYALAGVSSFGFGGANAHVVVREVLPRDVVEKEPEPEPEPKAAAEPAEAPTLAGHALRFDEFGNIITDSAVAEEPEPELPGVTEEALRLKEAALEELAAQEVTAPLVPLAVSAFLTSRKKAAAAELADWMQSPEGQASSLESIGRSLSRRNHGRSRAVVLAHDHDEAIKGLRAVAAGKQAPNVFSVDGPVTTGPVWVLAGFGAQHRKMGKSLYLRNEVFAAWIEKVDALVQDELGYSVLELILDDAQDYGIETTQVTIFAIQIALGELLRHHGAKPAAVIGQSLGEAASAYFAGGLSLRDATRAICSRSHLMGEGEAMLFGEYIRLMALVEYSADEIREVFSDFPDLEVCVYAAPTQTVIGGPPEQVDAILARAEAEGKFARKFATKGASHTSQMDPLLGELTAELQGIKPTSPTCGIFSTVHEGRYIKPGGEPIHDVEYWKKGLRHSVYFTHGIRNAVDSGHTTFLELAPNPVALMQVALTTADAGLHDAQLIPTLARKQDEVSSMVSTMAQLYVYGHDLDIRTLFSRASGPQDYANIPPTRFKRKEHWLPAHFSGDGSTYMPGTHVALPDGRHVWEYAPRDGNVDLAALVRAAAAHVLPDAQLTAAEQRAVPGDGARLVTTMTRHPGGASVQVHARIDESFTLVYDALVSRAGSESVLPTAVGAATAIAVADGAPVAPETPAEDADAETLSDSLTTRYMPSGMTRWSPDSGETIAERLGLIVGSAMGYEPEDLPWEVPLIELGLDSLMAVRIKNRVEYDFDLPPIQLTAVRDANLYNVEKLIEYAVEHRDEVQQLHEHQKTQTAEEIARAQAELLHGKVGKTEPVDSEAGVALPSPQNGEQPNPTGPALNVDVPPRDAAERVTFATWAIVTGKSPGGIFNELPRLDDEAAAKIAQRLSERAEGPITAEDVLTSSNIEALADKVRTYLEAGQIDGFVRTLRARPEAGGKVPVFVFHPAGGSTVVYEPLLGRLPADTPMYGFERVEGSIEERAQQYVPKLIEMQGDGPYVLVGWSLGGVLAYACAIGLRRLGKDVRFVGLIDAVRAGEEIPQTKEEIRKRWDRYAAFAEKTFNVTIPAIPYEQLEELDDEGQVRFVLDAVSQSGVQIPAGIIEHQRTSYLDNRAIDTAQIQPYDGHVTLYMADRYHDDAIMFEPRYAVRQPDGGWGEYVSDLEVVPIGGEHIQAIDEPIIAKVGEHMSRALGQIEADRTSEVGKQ
UniProt P9WNZ1, whole entry: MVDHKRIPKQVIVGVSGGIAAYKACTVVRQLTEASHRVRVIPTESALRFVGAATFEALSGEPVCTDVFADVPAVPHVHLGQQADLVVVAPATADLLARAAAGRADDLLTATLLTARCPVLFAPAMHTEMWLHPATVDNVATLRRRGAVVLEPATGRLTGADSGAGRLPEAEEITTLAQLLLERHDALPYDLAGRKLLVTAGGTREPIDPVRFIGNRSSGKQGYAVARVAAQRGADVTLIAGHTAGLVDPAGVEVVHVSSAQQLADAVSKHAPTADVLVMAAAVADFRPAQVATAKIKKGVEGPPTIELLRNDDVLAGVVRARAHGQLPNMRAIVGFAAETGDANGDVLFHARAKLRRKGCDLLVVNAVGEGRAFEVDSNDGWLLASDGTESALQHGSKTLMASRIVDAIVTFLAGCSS
UniProt A4I591, 1-473: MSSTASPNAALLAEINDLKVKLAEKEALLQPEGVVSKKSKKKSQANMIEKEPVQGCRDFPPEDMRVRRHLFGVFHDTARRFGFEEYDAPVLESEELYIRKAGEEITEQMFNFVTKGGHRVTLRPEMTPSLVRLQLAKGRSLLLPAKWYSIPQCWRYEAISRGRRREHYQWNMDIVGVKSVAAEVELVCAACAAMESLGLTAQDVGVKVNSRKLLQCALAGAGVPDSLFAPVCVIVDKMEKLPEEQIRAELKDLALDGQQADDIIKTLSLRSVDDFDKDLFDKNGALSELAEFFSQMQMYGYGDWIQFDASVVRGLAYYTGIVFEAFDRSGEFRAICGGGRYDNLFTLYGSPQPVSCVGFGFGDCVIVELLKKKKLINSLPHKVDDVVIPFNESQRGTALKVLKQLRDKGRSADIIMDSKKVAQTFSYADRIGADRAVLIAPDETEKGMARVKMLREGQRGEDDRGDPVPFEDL
UniProt Q4DA54, 1-478: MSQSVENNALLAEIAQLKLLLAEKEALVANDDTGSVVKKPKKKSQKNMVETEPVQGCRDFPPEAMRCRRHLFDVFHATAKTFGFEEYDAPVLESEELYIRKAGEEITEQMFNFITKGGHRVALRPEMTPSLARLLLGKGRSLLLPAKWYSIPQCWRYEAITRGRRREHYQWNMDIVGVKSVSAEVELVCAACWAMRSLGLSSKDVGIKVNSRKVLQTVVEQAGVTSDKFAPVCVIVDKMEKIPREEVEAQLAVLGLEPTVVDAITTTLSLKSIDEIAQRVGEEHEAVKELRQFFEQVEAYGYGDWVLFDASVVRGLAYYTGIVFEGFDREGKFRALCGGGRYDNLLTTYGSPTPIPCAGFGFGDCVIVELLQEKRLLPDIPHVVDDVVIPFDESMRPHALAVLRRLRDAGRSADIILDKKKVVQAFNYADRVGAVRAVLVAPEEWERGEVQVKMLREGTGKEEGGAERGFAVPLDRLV

Data taken from ChEMBL document CHEMBL3988442, “University of Dundee, Small-Polar-MMV Screening Library” (2021).

The filed quantity is “Percent Effect” (%).
How 0% and 100% were set is not recorded. Most values in the screen are low, and negative values occur.
The compounds are a random part of those screened.
A dash means the value is not listed here; it may have been measured.

ClpP1P2: 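Protease assay of ClpP1P2, read by the AMC dye that it sets free. Target: ClpP1P2, Mycobacterium tuberculosis (UniProt P9WPC5 and UniProt P9WPC3). Tested at 50 µM. Higher reads as stronger inhibition, judged from the few compounds that gave an IC50. Most other retested compounds had strongly negative values. About 69,000 compounds were tested under these conditions; 0.015% (about 10) showed 50% or more at least once.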
Pks13 thioesterase: 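Polyketide synthase Pks13, Mycobacterium tuberculosis (UniProt I6X8D2). Enzyme assay of the thioesterase domain of polyketide synthase 13; the read-out is not stated. Tested at 30 µM. The record gives no direction; the compounds picked for IC50 retests had high values, so higher reads as stronger inhibition. Size under these conditions: about 67,000 compounds, about 300 of them at 50% or above in at least one test.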
CoaBC: 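Coenzyme A biosynthesis protein CoaBC, Mycobacterium tuberculosis (UniProt P9WNZ1). Enzyme assay of CoaBC with a phosphate dye (Biomol Green) read at 650 nm. Compounds at 30 µM. Higher reads as stronger inhibition, judged from the few compounds that gave an IC50. Most strong results did not repeat in a second test. About 67,000 compounds were tested under these conditions; 0.06% (about 40) showed 50% or more at least once.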
LiHisRS: 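Histidine-tRNA ligase, Leishmania infantum (UniProt A4I591). Enzyme assay of histidyl-tRNA synthetase; the read-out is not stated. Compounds at 30 µM. Direction is inferred from retests: higher values go with stronger inhibition. The assay is labelled LdHisRS but filed under L. infantum. Size under these conditions: about 69,000 compounds, about 410 of them at 50% or above in at least one test.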
TcHisRS: 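Enzyme assay of histidyl-tRNA synthetase; the read-out is not stated. Target: Histidine-tRNA ligase, Trypanosoma cruzi CL Brener (UniProt Q4DA54). Concentration: 30 µM. The record gives no direction; compounds that gave an IC50 in retests scored well above the rest, so higher reads as stronger inhibition. Of about 69,000 compounds tested this way, about 31 (0.045%) reached 50% or more in at least one test.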

| compound | ClpP1P2 | Pks13 thioesterase | CoaBC | LiHisRS | TcHisRS |
|---|---|---|---|---|---|
| `CN1CCCN(C(=O)c2ccc3c(c2)nc(N2CCOCC2)n3C)CC1` | 10.81% | -18.31% | 2.954% | 18.27% | -0.813% |
| `COc1ccc2c(c1)OCC(CNC1CCc3nc(C)nn3C1)=C2` (centres unmarked) | -12.7% | -6.694% | 17.85% | 10% | 4.348% |
| `Clc1cccnc1N1CCC(C2CCN(Cc3cccnc3)CC2)C1` (centres unmarked) | -5.008% | 1.283% | - | -0.8333% | 5.263% |
| `Cc1ccccc1CNC(=O)c1ccccc1-n1cc(CN)cn1` | -4.588% | -9.618% | 4.585% | 10% | 4.494% |
| `O=C(CCc1ccccc1F)NC1CCCN(c2ccccn2)C1` (centres unmarked) | 6.317% | 11.28% | -3.417% | 14.49% | 6.061% |
| `Cc1nc(O)cc(CN2CCC=C(CN(C)C(=O)c3ccco3)C2)n1` | -10.44% | -6.445% | -0.9804% | -8.889% | 5.952% |
| `Cc1ccc(N2CCC3(CC2)CNC(=O)CO3)nn1` | 0.9503% | -21% | -3.055% | 5.263% | 1.149% |
| `Cc1cc(C)n(CC2CN(CC(=O)Nc3c(C)n[nH]c3C)CCO2)n1` (centres unmarked) | -2.569% | -9.802% | -4.337% | 16.44% | 2.29% |
| `CN(C)C(=O)N1CC[C@@H](O)[C@@H]1Cc1cnn(C)c1` | -0.7499% | -27.12% | 9.895% | 15.04% | 2.151% |
| `CC(C)Cn1cc(NC(=O)N2CCCC2)cn1` | -23.05% | -16.36% | 4.348% | 16.51% | 6.471% |
| `O=C(CCc1ccco1)NCC1CCCN1c1cccnn1` (centres unmarked) | -1.727% | -29.7% | 2.386% | 15.62% | 2.128% |
| `O=S1(=O)CCC(N(Cc2nc3ccccc3o2)Cc2cccs2)C1` (centres unmarked) | -31.12% | -4.177% | 2.937% | 4.464% | 3.468% |
| `CNC(=O)Cc1ccc(NC(=O)NCc2ncc(C)s2)cc1` | -2.722% | -16.54% | -2.334% | 1.55% | 0% |
| `Cc1cc(C)c(CNC(=O)N2CCN(c3nccs3)CC2)c(=O)[nH]1` | -17.58% | -35.57% | 8.696% | 12.84% | 0.5882% |
| `Cc1ccc(N2CC[C@H]3O[C@H](C(=O)NCc4ccco4)CC[C@H]32)nn1` | 12.48% | -3.573% | 6.723% | 16.36% | 2.479% |
| `CN1CC(Oc2ccccc2)=NC(SCC(=O)c2ccccc2)=N1` | 10.67% | -11.53% | 13.03% | 8.824% | 13.23% |
| `CC(C)c1ncc2c(n1)CN(CC(=O)Nc1ccc(Cl)cn1)CC2` | -50.49% | -7.074% | 4.439% | 13.79% | 7.91% |
| `CCCNC(=O)c1cc2c(s1)CCN2C(=O)CN(C)C` | -12.17% | 3.556% | -11.28% | -161.5% | 3.659% |
| `CN1CCC(NC(=O)CCCc2cc(Cl)sc2Cl)C1=O` (centres unmarked) | -0.8713% | -28.97% | 6.483% | 4.762% | 1.01% |
| `Cn1nnc(NCc2ccc(-c3ccc(Br)cc3)o2)n1` | 5.514% | 13.38% | 0.5612% | 19.35% | -1.554% |
| `Cc1nc(CN2C[C@@H]3CN(C(=O)c4ccco4)C[C@@H]3C2=O)cs1` | 3.266% | -4.47% | 2.284% | 17.65% | 2.956% |
| `CSc1ccccc1C(=O)N1C[C@@H](N(C)C)[C@H](c2ccc(C)cc2)C1` | -13.71% | -68.49% | 6.386% | 25.97% | 2.424% |
| `CC(C)N1CCCC(c2cc(C(F)(F)F)nc3nccn23)C1` (centres unmarked) | -724.5% | 24.51% | -0.6849% | 9.396% | 6% |
| `COCCOCC(=O)N1CCC(O)(c2ccc3nc(C)ccc3c2)CC1` | 2.161% | -16.52% | 8.876% | 21.21% | 3.175% |
| `COc1cc(F)ccc1N1CCN(Cc2nnc(C3CC3)o2)CC1` | 2.758% | -22.87% | - | 4.167% | 5.263% |
| `Cc1ccc(CNC2CC3(CCN(CCO)CC3)c3ccccc32)s1` (centres unmarked) | 1.151% | -0.618% | -1.238% | 0.9009% | 1.105% |
| `CCN1CCN(Cc2nc(Cc3ccccc3)n[nH]2)CC1` | -1.423% | 0.3213% | -0.122% | 28.57% | 13.86% |
| `CS(=O)(=O)N1CCCC12CCN(Cc1nccs1)C2` (centres unmarked) | -0.97% | -43.43% | -6.977% | 15.79% | 3.226% |
| `O=C(c1cc2c(Cl)cccc2[nH]1)N1CCN(CCc2ccccn2)CC1` | -16.68% | 4.468% | -3.165% | 12.5% | -4.969% |
| `Cc1noc2ncnc(N3CCC(O)(Cn4ccnc4)CC3)c12` | 11.08% | -7.819% | 5.622% | 22.39% | 0% |
| `CC(C)N(Cc1ccccn1)C(=O)CCC(=O)c1ccc(F)cc1F` | -11.62% | -17.24% | 1.401% | -2.073% | 10.5% |
| `O[C@H]1[C@H](NCCc2ccccn2)c2ccccc2C12CCNCC2` | -8.16% | -24.04% | 0.4902% | -6.667% | -1.19% |
| `O=C(CC1CCN(c2ncnc3ccccc23)CC1)N1CCCC1` | 5.113% | 18.39% | 1.914% | 6.667% | 9.804% |
| `CN(C)CCN1C(=O)CCC12CCCN(C(=O)N(C)C)CC2` (centres unmarked) | 0.316% | -20.2% | -0.6435% | 9.615% | 1.942% |
| `CC(NCC(=O)NCC(=O)Nc1ccc(F)cc1)c1cccs1` (centres unmarked) | 16.64% | 4.855% | 3.639% | -3.614% | 6.468% |
| `CC(=O)N1CCC(C(=O)NCc2ncc(-c3ccccc3)o2)CC1` | -2.962% | -24.76% | -1.515% | 13.16% | 9.942% |
| `CCC(C)N(Cc1sccc1C)C(=O)c1ccc2cccnc2n1` (centres unmarked) | -6.941% | -4.506% | 5.926% | 13.99% | 9.453% |
| `CCO[C@@H]1CC[C@H]2[C@H]1OCCN2S(=O)(=O)c1cn(C)cn1` | 1.282% | 7.094% | 0.2037% | 10.53% | 9.195% |
| `COc1cc(C)ccc1OCCC(=O)N1CCCC(n2cncn2)C1` (centres unmarked) | -4.352% | -12.2% | -3.037% | 6.195% | 3.097% |
| `COc1ccnc(N2CCN(C(=O)c3csc(C)n3)CC2)n1` | 0.8963% | -14.96% | 5.579% | 16.39% | 2.326% |
| `Cc1ccc(C(C(=O)N2CC(c3ccccn3)C2)N(C)C)cc1` (centres unmarked) | 16.29% | -12.79% | -16.53% | 5.333% | 3.804% |
| `CNc1ncc(CN(C)Cc2cc3n(n2)CCNC3)cn1` | 11.32% | -7.244% | -0.2484% | 11.11% | -1.538% |
| `CCc1nnc2n1CCN(C(=O)CCc1ccc3c(c1)OCO3)C2` | -6.355% | -12.01% | 3.995% | 16.3% | 2.97% |
| `Cc1nc[nH]c1-c1nccn1CCCN(C)C` | -1.668% | -0.9278% | -0.3764% | 18.64% | 4.39% |
| `COc1cnc(CSc2nnc(C)s2)cc1OCC(=O)NC1CCCC1` | -11.05% | -1.365% | 2.785% | 10.53% | 0% |
| `CC(C)n1cc(CN(Cc2ccsc2)CC2CCCO2)cn1` (centres unmarked) | -2.446% | -19.22% | -4.084% | 8.333% | 1.739% |
| `CC(Cc1ccccc1F)NC(=O)CCc1nc(-c2nnc[nH]2)no1` (centres unmarked) | -3.396% | -12.37% | 1.096% | 20.43% | 10.12% |

5 of the entries, repeated:

| compound | ClpP1P2 | Pks13 thioesterase | CoaBC | LiHisRS | TcHisRS |
|---|---|---|---|---|---|
| `CS(=O)(=O)N1CCCC12CCN(Cc1nccs1)C2` (centres unmarked) | -0.97% | -43.43% | -6.977% | 15.79% | 3.226% |
| `CCO[C@@H]1CC[C@H]2[C@H]1OCCN2S(=O)(=O)c1cn(C)cn1` | 1.282% | 7.094% | 0.2037% | 10.53% | 9.195% |
| `Cc1nc(CN2C[C@@H]3CN(C(=O)c4ccco4)C[C@@H]3C2=O)cs1` | 3.266% | -4.47% | 2.284% | 17.65% | 2.956% |
| `CSc1ccccc1C(=O)N1C[C@@H](N(C)C)[C@H](c2ccc(C)cc2)C1` | -13.71% | -68.49% | 6.386% | 25.97% | 2.424% |
| `CN1CCC(NC(=O)CCCc2cc(Cl)sc2Cl)C1=O` (centres unmarked) | -0.8713% | -28.97% | 6.483% | 4.762% | 1.01% |